Earlier results on one compound are cited in patent publication US20070190132A1, “Pharmaceutical compositions for oral and topical administration” (IVAX-CR a.s., priority 1999, published 2007).

For this data set the following is noted: immediately after preparation.

In the case of `CC(=O)O[C@H]1C(=O)[C@@]2(C)[C@H]([C@H](OC(=O)c3ccccc3)[C@]3(O)C[C@H](OC(=O)[C@H](O)[C@@H](NC(=O)c4ccccc4)c4ccccc4)C(C)=C1C3(C)C)[C@]1(OC(C)=O)CO[C@@H]1C[C@@H]2O` [paclitaxel], the solubility in water entry was “about 5 μg/ml”.
